In the supplement of paper PMC6411743:
± gives the standard deviation of the averaged measurements. The list shows a part of the results, in another mix than the full data.

Key:
Experiment in all cases: NP40-soluble protein abundance relative to vehicle (solubility fold change) (ratio); higher = more soluble protein in presence of ATP
ATN1 = molecular target: T1, ATN1 (UniProt P54259)
T1 sequence (whole entry): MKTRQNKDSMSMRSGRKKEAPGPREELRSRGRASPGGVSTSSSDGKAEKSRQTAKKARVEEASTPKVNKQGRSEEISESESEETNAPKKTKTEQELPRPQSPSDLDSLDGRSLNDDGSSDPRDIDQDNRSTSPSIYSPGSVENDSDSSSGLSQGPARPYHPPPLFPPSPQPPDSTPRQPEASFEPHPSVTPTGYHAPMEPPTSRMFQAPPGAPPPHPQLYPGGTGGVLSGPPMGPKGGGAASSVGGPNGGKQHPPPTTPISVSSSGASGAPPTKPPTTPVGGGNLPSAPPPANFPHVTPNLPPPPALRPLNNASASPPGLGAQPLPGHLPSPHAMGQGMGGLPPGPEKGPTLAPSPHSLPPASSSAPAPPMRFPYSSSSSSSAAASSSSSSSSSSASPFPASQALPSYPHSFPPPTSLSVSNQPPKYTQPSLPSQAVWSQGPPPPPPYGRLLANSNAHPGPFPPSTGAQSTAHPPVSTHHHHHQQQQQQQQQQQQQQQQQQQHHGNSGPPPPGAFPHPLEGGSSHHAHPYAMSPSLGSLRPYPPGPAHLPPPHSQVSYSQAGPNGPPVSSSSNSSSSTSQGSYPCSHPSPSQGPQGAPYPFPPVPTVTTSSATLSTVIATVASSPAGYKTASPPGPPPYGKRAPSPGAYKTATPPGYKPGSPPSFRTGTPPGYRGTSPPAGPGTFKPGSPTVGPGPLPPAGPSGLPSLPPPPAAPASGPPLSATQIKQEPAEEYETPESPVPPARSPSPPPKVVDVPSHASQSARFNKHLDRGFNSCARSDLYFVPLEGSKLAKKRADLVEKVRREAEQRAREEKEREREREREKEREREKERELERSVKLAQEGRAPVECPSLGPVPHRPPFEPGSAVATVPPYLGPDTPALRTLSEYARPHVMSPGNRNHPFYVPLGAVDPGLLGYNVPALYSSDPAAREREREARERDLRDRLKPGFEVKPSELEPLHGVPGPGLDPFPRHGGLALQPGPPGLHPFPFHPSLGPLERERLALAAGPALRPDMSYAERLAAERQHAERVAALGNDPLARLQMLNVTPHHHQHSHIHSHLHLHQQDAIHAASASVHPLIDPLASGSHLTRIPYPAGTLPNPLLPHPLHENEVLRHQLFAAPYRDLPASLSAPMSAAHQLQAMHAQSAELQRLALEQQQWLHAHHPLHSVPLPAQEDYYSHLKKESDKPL
In short: (§1)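 Values are fold changes against the detergent-processed vehicle, based on vsn-normalised intensities. Jurkat crude lysate was treated at eight concentrations from 0.1 to 10 mM (10 min at room temperature, then 3 min at 37 °C), solubilised with 0.8% NP40 and benzonase, ultracentrifuged and analysed by TMT-labelled LC-MS/MS over three independent experiments.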

BLVRA = molecular target: T2, BLVRA (UniProt P53004)
T2 sequence (whole entry): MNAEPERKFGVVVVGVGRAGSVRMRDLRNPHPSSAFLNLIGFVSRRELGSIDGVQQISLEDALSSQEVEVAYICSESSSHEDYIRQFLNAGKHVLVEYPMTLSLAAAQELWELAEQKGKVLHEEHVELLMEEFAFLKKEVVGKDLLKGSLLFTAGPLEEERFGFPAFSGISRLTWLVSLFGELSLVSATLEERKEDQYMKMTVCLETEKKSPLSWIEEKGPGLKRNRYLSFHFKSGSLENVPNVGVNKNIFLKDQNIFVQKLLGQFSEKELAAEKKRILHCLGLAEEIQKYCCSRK
In short: as §1

HADHB = molecular target: T3, HADHB (UniProt P55084)
T3 sequence (whole entry): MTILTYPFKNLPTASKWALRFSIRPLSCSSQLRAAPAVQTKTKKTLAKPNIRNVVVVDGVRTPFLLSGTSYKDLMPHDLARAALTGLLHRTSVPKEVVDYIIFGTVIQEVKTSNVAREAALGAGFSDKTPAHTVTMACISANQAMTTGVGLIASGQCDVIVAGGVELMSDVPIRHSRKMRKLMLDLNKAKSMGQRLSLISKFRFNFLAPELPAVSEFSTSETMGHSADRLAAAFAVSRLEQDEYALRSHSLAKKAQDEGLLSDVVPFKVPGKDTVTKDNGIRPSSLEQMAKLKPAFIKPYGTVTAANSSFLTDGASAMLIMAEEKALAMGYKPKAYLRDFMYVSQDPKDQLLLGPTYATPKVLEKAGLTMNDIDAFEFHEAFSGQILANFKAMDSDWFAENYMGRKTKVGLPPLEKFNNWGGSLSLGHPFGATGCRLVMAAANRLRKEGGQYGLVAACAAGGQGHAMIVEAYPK
In short: as §1

PURA = molecular target: T4, PURA (UniProt Q00577)
T4 sequence (whole entry): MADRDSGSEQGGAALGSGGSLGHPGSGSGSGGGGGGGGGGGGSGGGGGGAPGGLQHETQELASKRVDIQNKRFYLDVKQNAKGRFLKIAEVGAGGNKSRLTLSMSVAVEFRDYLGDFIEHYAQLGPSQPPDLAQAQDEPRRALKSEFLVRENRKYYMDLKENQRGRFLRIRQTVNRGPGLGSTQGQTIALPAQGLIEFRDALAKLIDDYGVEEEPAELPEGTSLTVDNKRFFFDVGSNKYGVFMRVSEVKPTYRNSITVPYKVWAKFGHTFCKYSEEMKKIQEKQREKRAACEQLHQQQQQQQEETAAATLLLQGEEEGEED
In short: as §1

SLC12A2 = molecular target: T5, SLC12A2 (UniProt P55011)
T5 sequence (whole entry): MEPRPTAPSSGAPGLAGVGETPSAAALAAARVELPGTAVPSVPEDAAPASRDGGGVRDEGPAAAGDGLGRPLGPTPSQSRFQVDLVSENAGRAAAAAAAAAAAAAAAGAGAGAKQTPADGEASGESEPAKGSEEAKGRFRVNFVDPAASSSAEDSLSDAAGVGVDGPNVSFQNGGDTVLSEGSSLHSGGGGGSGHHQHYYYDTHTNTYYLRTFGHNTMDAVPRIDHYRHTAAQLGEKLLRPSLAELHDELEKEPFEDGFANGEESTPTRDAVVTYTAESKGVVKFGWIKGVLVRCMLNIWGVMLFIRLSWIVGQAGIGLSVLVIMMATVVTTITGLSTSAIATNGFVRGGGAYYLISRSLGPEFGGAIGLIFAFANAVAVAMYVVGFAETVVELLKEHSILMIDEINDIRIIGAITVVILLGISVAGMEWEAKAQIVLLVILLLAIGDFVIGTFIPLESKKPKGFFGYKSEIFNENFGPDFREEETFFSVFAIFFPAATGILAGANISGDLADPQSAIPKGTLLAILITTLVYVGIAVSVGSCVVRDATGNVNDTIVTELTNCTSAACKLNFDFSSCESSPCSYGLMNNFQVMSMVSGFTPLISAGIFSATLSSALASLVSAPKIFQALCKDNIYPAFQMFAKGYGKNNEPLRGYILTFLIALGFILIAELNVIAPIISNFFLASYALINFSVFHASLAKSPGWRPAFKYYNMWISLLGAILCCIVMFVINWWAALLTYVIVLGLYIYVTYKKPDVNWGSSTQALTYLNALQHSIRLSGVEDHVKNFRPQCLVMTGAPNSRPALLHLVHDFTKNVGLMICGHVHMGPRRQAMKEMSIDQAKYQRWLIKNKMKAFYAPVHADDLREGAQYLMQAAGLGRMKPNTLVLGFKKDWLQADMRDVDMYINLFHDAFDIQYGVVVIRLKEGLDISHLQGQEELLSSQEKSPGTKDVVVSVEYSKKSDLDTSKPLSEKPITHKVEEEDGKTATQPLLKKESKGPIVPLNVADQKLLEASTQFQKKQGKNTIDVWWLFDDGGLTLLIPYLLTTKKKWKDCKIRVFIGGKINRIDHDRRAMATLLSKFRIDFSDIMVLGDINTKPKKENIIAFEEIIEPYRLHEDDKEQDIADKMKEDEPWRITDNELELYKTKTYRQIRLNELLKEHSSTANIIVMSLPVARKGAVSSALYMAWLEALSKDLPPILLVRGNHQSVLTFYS
In short: as §1

[1] = molecular target: T6, UniProt P55036 and related entries
T6 sequence (whole entry): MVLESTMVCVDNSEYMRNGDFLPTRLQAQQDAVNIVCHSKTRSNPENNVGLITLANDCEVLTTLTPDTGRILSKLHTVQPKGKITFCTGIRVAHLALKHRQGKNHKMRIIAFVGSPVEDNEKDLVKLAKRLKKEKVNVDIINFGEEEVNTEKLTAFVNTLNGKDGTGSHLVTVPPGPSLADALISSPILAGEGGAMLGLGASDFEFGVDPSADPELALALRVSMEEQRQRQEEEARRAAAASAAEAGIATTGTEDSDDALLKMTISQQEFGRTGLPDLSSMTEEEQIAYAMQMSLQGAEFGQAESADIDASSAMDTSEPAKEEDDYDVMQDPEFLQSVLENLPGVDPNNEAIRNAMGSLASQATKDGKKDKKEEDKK
In short: as §1

[2] = molecular target: T7, UniProt P57768 and related entries
T7 sequence (whole entry): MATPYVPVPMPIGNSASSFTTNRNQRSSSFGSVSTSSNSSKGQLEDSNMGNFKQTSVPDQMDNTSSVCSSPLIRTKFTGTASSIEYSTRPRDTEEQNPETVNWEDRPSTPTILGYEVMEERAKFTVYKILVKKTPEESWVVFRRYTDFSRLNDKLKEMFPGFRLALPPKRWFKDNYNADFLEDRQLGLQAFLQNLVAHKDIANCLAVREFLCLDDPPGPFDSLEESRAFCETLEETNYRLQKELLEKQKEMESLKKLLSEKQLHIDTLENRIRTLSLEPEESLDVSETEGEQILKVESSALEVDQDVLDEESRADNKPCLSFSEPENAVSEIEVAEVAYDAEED
In short: as §1

## Nc1ncnc2c1ncn2[C@@H]1O[C@H](COP(=O)(O)OP(=O)(O)OP(=O)(O)O)[C@@H](O)[C@H]1O [adenosine triphosphate]
ATN1; concentration: 1mM
  NP40-soluble protein abundance: 0.945 ± 0.11
ATN1; concentration: 2mM
  NP40-soluble protein abundance: 0.952 ± 0.12
ATN1; concentration: 4mM
  NP40-soluble protein abundance: 1.0009 ± 0.00027
ATN1; concentration: 6mM
  NP40-soluble protein abundance: 1.06 ± 0.071
ATN1; concentration: 8mM
  NP40-soluble protein abundance: 0.941 ± 0.042
ATN1; concentration: 10mM
  NP40-soluble protein abundance: 1 ± 0.054
BLVRA; concentration: 1mM
  NP40-soluble protein abundance: 1.01 ± 0.1
BLVRA; concentration: 2mM
  NP40-soluble protein abundance: 0.988 ± 0.095
BLVRA; concentration: 4mM
  NP40-soluble protein abundance: 0.946 ± 0.086
BLVRA; concentration: 6mM
  NP40-soluble protein abundance: 0.927 ± 0.15
BLVRA; concentration: 8mM
  NP40-soluble protein abundance: 0.991 ± 0.087
BLVRA; concentration: 10mM
  NP40-soluble protein abundance: 0.947 ± 0.078
HADHB; concentration: 1mM
  NP40-soluble protein abundance: 0.9862 ± 0.0091
HADHB; concentration: 2mM
  NP40-soluble protein abundance: 0.965 ± 0.029
HADHB; concentration: 4mM
  NP40-soluble protein abundance: 0.932 ± 0.035
HADHB; concentration: 6mM
  NP40-soluble protein abundance: 0.942 ± 0.033
HADHB; concentration: 8mM
  NP40-soluble protein abundance: 0.955 ± 0.052
HADHB; concentration: 10mM
  NP40-soluble protein abundance: 0.966 ± 0.056
PURA; concentration: 1mM
  NP40-soluble protein abundance: 0.964 ± 0.043
PURA; concentration: 2mM
  NP40-soluble protein abundance: 0.935 ± 0.048
PURA; concentration: 4mM
  NP40-soluble protein abundance: 0.923 ± 0.076
PURA; concentration: 6mM
  NP40-soluble protein abundance: 0.935 ± 0.041
PURA; concentration: 8mM
  NP40-soluble protein abundance: 0.913 ± 0.081
PURA; concentration: 10mM
  NP40-soluble protein abundance: 0.923 ± 0.045
SLC12A2; concentration: 1mM
  NP40-soluble protein abundance: 0.947 ± 0.023
SLC12A2; concentration: 2mM
  NP40-soluble protein abundance: 0.9234 ± 0.0085
SLC12A2; concentration: 4mM
  NP40-soluble protein abundance: 0.941 ± 0.033
SLC12A2; concentration: 6mM
  NP40-soluble protein abundance: 0.947 ± 0.058
SLC12A2; concentration: 8mM
  NP40-soluble protein abundance: 0.961 ± 0.023
SLC12A2; concentration: 10mM
  NP40-soluble protein abundance: 0.932 ± 0.023
[1]; concentration: 1mM
  NP40-soluble protein abundance: 0.933 ± 0.052
[1]; concentration: 2mM
  NP40-soluble protein abundance: 0.897 ± 0.018
[1]; concentration: 4mM
  NP40-soluble protein abundance: 0.888 ± 0.029
[1]; concentration: 6mM
  NP40-soluble protein abundance: 0.935 ± 0.11
[1]; concentration: 8mM
  NP40-soluble protein abundance: 0.901 ± 0.046
[1]; concentration: 10mM
  NP40-soluble protein abundance: 0.889 ± 0.046
[2]; concentration: 1mM
  NP40-soluble protein abundance: 0.9965 ± 0.0073
[2]; concentration: 2mM
  NP40-soluble protein abundance: 1.02 ± 0.043
[2]; concentration: 4mM
  NP40-soluble protein abundance: 1.01 ± 0.038
[2]; concentration: 6mM
  NP40-soluble protein abundance: 0.975 ± 0.054
[2]; concentration: 8mM
  NP40-soluble protein abundance: 1.01 ± 0.014
[2]; concentration: 10mM
  NP40-soluble protein abundance: 0.988 ± 0.071
